From the supplement of paper PMC12823440, “Inhibitors supercharge kinase turnover through native proteolytic circuits” (Nature, 2025)
Counter-ions that a name gives are not always drawn. This is one part of the list. Hit calls seldom repeat between salt and free forms of one compound.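 Kinases were expressed as nanoluciferase fusions in K562 cells and luminescence was read every 4 h between 2 and 18 h as percent of control, DMSO set to 100% and a positive control to 0%. A time point counts as decreased when the signal drops significantly (2 sigma). The hit call is the authors' own, does not follow from the count of time points alone, and its rule is not shown.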

Sequences of proteins named here, by UniProt entry; tags and fusion partners are left off. A change or cut given only in a name is not applied to a line headed by its entry.
UniProt Q15208: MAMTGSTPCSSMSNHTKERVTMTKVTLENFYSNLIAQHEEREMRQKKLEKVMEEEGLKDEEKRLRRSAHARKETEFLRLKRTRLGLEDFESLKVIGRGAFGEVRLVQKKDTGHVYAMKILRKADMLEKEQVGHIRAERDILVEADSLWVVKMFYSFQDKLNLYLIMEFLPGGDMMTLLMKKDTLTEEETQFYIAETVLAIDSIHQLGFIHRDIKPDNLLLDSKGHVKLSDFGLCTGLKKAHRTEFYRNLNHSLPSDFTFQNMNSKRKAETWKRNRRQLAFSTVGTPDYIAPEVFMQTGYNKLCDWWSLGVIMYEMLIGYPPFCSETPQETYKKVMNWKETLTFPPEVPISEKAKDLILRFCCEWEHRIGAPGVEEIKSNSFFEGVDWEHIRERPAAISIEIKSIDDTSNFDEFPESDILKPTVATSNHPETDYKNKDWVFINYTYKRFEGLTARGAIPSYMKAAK
UniProt P42680: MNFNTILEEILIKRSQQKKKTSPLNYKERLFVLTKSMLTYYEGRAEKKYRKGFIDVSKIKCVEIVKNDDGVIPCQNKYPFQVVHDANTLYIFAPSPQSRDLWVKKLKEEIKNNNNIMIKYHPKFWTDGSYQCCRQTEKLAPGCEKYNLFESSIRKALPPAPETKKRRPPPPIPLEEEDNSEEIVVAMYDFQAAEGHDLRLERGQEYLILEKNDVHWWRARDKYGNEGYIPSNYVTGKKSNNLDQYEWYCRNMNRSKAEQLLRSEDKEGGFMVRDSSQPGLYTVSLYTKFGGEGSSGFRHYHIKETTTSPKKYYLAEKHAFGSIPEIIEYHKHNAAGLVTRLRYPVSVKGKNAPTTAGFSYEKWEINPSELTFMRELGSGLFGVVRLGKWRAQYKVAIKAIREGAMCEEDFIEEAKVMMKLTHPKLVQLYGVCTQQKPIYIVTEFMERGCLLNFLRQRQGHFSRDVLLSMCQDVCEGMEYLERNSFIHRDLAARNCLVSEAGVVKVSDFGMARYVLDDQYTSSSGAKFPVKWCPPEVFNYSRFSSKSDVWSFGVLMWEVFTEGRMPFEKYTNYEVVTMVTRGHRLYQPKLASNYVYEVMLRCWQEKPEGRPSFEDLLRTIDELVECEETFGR
UniProt P29597: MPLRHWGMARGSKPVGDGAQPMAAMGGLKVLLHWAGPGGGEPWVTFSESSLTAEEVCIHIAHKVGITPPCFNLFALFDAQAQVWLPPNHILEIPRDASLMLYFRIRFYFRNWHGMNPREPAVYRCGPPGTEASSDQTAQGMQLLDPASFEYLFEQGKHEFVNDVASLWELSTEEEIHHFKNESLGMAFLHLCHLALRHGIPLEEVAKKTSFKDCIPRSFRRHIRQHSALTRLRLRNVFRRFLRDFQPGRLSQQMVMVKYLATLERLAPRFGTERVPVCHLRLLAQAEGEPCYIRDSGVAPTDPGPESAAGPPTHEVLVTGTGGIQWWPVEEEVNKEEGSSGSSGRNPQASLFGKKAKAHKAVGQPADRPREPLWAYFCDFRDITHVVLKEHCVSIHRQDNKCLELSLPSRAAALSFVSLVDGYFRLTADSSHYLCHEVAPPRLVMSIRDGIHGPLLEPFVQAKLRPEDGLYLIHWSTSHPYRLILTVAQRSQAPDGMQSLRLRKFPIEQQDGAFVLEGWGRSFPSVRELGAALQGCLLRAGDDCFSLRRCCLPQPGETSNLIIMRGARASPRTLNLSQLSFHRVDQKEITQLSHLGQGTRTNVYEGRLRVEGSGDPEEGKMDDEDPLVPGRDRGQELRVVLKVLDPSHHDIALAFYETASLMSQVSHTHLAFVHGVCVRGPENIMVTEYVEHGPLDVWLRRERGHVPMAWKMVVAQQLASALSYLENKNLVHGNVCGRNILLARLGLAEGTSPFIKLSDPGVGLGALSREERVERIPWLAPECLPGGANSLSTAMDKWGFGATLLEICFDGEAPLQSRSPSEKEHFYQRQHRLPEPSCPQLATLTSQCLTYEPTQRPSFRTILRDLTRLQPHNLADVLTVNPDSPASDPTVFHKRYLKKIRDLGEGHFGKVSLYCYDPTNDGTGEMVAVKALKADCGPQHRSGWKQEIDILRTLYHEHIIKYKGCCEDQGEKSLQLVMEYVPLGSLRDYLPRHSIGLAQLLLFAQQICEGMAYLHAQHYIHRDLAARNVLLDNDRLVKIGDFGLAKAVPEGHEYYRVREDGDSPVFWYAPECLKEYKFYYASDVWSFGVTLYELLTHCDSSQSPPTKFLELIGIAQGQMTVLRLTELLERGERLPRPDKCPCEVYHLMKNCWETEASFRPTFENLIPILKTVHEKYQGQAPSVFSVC
UniProt Q6PHR2: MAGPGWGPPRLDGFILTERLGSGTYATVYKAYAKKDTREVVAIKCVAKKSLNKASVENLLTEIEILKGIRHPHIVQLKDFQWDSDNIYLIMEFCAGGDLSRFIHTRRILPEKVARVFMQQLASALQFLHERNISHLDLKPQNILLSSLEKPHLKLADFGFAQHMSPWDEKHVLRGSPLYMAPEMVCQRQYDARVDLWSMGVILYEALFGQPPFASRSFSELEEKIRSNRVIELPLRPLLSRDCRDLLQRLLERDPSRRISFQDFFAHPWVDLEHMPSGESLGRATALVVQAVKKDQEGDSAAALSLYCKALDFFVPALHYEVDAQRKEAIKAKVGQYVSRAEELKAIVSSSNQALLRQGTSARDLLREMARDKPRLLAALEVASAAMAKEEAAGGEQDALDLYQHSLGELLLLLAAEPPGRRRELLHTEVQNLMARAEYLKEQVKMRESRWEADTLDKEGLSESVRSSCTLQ
UniProt P07947, whole entry, looked up: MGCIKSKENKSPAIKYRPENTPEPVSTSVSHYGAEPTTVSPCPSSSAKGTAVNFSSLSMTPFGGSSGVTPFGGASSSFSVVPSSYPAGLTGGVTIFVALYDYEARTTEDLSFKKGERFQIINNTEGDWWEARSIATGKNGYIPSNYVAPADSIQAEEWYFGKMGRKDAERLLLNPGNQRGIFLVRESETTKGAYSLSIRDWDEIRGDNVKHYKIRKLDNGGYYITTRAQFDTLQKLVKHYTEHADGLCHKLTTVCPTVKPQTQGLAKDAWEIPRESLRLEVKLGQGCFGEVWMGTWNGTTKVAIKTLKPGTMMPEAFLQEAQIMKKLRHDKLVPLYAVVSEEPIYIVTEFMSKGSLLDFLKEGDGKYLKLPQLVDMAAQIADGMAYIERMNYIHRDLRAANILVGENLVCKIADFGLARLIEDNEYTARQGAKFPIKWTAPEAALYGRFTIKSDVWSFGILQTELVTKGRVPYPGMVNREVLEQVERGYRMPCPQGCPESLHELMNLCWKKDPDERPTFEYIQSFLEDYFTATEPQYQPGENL
UniProt P43403: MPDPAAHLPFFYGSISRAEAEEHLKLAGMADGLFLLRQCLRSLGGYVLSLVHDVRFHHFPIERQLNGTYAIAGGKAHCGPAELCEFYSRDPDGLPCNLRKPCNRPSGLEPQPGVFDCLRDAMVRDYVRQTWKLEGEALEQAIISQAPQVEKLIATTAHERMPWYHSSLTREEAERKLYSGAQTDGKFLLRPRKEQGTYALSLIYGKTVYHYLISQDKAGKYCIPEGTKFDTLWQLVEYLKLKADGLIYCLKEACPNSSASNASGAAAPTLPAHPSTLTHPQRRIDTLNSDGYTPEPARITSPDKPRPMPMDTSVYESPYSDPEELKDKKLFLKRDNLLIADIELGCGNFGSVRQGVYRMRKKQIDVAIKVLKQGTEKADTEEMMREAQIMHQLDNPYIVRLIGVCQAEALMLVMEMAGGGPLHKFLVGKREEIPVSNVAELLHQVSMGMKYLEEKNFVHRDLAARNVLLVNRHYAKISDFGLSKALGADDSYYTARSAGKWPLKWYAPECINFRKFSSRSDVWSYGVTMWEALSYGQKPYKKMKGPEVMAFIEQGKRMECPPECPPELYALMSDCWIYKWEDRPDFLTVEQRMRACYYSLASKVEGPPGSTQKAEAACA
UniProt P00519, whole entry: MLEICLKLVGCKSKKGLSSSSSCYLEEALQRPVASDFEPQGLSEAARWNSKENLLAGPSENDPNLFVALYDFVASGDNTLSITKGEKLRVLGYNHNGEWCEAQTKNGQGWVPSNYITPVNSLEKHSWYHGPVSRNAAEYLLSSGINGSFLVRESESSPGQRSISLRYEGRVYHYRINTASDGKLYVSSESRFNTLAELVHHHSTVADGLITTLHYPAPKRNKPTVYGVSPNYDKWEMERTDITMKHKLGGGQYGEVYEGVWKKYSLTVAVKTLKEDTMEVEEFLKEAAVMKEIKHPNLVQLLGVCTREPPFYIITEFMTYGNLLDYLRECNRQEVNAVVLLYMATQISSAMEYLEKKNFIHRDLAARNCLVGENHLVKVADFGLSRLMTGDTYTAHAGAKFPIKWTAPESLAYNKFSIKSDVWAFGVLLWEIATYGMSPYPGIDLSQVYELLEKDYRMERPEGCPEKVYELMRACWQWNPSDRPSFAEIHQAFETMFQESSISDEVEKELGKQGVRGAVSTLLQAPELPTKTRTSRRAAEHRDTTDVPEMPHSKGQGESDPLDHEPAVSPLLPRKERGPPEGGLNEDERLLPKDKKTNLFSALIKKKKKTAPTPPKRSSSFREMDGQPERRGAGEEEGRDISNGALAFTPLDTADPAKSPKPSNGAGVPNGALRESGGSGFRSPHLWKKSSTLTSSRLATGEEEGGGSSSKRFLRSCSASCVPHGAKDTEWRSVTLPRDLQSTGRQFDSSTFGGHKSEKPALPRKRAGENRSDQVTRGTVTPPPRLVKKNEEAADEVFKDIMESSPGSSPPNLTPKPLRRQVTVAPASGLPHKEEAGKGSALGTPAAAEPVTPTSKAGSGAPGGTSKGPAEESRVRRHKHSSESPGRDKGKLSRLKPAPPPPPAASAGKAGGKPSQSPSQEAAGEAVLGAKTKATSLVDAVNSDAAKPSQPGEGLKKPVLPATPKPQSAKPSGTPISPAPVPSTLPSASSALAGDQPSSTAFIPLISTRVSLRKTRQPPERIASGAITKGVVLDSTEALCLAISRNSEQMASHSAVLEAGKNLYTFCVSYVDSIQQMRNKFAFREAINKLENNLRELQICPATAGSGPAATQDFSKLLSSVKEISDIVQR
UniProt P31749: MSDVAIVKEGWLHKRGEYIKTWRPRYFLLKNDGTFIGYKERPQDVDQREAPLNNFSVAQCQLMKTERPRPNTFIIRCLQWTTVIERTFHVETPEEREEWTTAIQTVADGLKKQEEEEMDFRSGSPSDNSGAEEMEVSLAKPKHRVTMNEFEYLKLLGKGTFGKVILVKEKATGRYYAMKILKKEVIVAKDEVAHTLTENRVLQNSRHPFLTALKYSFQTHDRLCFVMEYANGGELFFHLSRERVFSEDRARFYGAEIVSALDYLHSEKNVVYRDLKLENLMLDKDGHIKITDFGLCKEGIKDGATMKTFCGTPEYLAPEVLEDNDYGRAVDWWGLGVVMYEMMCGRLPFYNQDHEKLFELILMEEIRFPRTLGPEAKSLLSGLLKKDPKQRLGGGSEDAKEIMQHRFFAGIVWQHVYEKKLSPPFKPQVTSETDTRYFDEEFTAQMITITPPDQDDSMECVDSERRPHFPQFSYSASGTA

Legend:
Details in all cases: K562; 2-18 h
STK38 = STK38 (UniProt Q15208); experiment: kinase-Nluc reporter destabilization hit call (1 = scored as downregulated) (binary); higher = compound decreases kinase abundance
SYK = SYK (UniProt P43405); experiment: as above
TEC = TEC (UniProt P42680); experiment: as above
TYK2 = TYK2 (UniProt P29597); experiment: as above
ULK3 = ULK3 (UniProt Q6PHR2); experiment: as above
YES1 = YES1 (UniProt P07947); experiment: as above
ZAK = ZAK (UniProt Q9NYL2); experiment: as above
ZAP70 = ZAP70 (UniProt P43403); experiment: as above
ABL1 = ABL1 (UniProt P00519); experiment: number of time points (of 5) at which kinase-Nluc abundance scored as decreased, DMSO-normalised (count); higher = more persistent destabilization
AKT1 = AKT1 (UniProt P31749); experiment: as above

Compound | kinase-Nluc reporter destabilization hit call (STK38) | kinase-Nluc reporter destabilization hit call (SYK) | kinase-Nluc reporter destabilization hit call (TEC) | kinase-Nluc reporter destabilization hit call (TYK2) | kinase-Nluc reporter destabilization hit call (ULK3) | kinase-Nluc reporter destabilization hit call (YES1) | kinase-Nluc reporter destabilization hit call (ZAK) | kinase-Nluc reporter destabilization hit call (ZAP70) | number of time points (ABL1) | number of time points (AKT1)
CCS(=O)(=O)c1ncc(Cl)c(C(=O)N(Cc2ccc(Cl)cc2)Cc2ccco2)n1 (2.5 µM) | inactive: 0 | inactive: 0 | inactive: 0 | inactive: 0 | inactive: 0 | inactive: 0 | inactive: 0 | inactive: 0 | 0 | 0
C[C@]1(O)CCN(c2nc(N3C[C@H](O)[C@@H](O)C3)cc(C(F)(F)F)c2C#N)C1 (10 µM) | inactive: 0 | inactive: 0 | inactive: 0 | inactive: 0 | inactive: 0 | inactive: 0 | inactive: 0 | inactive: 0 | 0 | 0
C[C@@]1(c2ncncc2F)NC(=O)c2cc(-c3cn[nH]c3)ccc21 (10 µM) | inactive: 0 | inactive: 0 | inactive: 0 | inactive: 0 | inactive: 0 | inactive: 0 | inactive: 0 | inactive: 0 | 0 | 0
CNc1nc(Nc2ccc(C(=O)N3CCOCC3)cc2OC)nc2[nH]cc(Cl)c12 (2.5 µM) | inactive: 0 | inactive: 0 | inactive: 0 | inactive: 0 | inactive: 0 | inactive: 0 | inactive: 0 | inactive: 0 | 0 | 0
Nc1ccc(-c2cnc(N)c(-c3ccc(Cl)cc3)c2)cn1 (10 µM) | inactive: 0 | inactive: 0 | inactive: 0 | inactive: 0 | inactive: 0 | inactive: 0 | inactive: 0 | inactive: 0 | 0 | 0
CCN1CCN(Cc2ccc(-c3cc4c(N[C@H](C)c5ccccc5)ncnc4[nH]3)cc2)CC1 (2.5 µM) | inactive: 0 | inactive: 0 | inactive: 0 | inactive: 0 | inactive: 0 | inactive: 0 | inactive: 0 | inactive: 0 | 3 | 0
Cc1ccccc1-n1c([C@H](C)Nc2nc(N)nc3nc[nH]c23)nc2cccc(C)c2c1=O [CAL-130 (Hydrochloride)] (10 µM) | inactive: 0 | inactive: 0 | inactive: 0 | inactive: 0 | inactive: 0 | inactive: 0 | inactive: 0 | inactive: 0 | 0 | 0
O=c1cc(CN2CCOCC2)occ1OCCCCCSc1ccnc2cc(C(F)(F)F)ccc12 (10 µM) | inactive: 0 | inactive: 0 | inactive: 0 | inactive: 0 | inactive: 0 | inactive: 0 | inactive: 0 | inactive: 0 | 0 | 0
Cn1nccc1Nc1nccc(-c2ccn([C@H](CO)c3ccc(Cl)c(F)c3)c(=O)c2)n1 [Ravoxertinib] (10 µM) | inactive: 0 | inactive: 0 | inactive: 0 | inactive: 0 | inactive: 0 | inactive: 0 | inactive: 0 | inactive: 0 | 0 | 0
CCOc1ccc2cc(-c3nn(CC4CCN(C)CC4)c4ncnc(N)c34)ccc2n1 (10 µM) | inactive: 0 | inactive: 0 | inactive: 0 | inactive: 0 | inactive: 0 | inactive: 0 | inactive: 0 | inactive: 0 | 0 | 0
COc1cc(/C=C/C(=O)NCC(O)c2ccc(O)cc2)ccc1O (centres undefined) [N-Feruloyloctopamine] (2.5 µM) | inactive: 0 | inactive: 0 | inactive: 0 | inactive: 0 | inactive: 0 | inactive: 0 | inactive: 0 | inactive: 0 | 0 | 0
O=C1N[C@@H](Cc2c[nH]c3ccccc23)C(=O)N2CCC[C@@H]12 [Brevianamide F] (10 µM) | inactive: 0 | inactive: 0 | inactive: 0 | inactive: 0 | inactive: 0 | inactive: 0 | inactive: 0 | inactive: 0 | 0 | 0
Cc1ccc(OCCSc2ncccn2)c(Br)c1 [ZLN024 (hydrochloride)] (10 µM) | inactive: 0 | inactive: 0 | inactive: 0 | inactive: 0 | inactive: 0 | inactive: 0 | inactive: 0 | inactive: 0 | 0 | 0
CN(C)C(=O)Cn1cc(-c2ccc(-c3cncc4ccccc34)cc2)cn1 (10 µM) | inactive: 0 | inactive: 0 | inactive: 0 | inactive: 0 | inactive: 0 | inactive: 0 | inactive: 0 | inactive: 0 | 0 | 0
OCCn1cc(-c2ccc3c(c2)CC/C3=N\O)c(-c2ccncc2)n1 (10 µM) | inactive: 0 | inactive: 0 | inactive: 0 | inactive: 0 | inactive: 0 | inactive: 0 | inactive: 0 | inactive: 0 | 0 | 0
Cn1cnc2c(F)c(Nc3ccc(Br)cc3Cl)c(C(=O)NOCCO)cc21 [Selumetinib] (10 µM) | inactive: 0 | inactive: 0 | inactive: 0 | inactive: 0 | inactive: 0 | inactive: 0 | inactive: 0 | inactive: 0 | 2 | 0
COc1cc2c(N3CCN(C(=O)Nc4ccc(OC(C)C)cc4)CC3)ncnc2cc1OCCCN1CCCCC1 [Tandutinib (hydrochloride)] (10 µM) | inactive: 0 | inactive: 0 | inactive: 0 | inactive: 0 | inactive: 0 | inactive: 0 | inactive: 0 | inactive: 0 | 0 | 0
Nc1nc(F)nc2c1ncn2[C@@H]1O[C@H](CO)[C@@H](O)[C@@H]1O [Fludarabine] (10 µM) | inactive: 0 | inactive: 0 | inactive: 0 | inactive: 0 | inactive: 0 | inactive: 0 | inactive: 0 | inactive: 0 | 0 | 0
CCc1cc2c(cc1N1CCC(N3CCOCC3)CC1)C(C)(C)c1[nH]c3cc(C#N)ccc3c1C2=O [Alectinib] (10 µM) | inactive: 0 | inactive: 0 | inactive: 0 | inactive: 0 | inactive: 0 | inactive: 0 | inactive: 0 | inactive: 0 | 0 | 0
C[C@@H]1CC[C@@H](Nc2nc(NC(C)(C)C)ncc2C(N)=O)C[C@H]1O (10 µM) | inactive: 0 | inactive: 0 | inactive: 0 | inactive: 0 | inactive: 0 | inactive: 0 | inactive: 0 | inactive: 0 | 0 | 0
Cc1cc2ncc(-c3ccc(O)c(O)c3)nc2cc1C [Tyrphostin AG1433] (10 µM) | inactive: 0 | inactive: 0 | inactive: 0 | inactive: 0 | inactive: 0 | inactive: 0 | inactive: 0 | inactive: 0 | 0 | 0
Cc1cc(=O)oc2c(C=O)c(O)ccc12 (10 µM) | inactive: 0 | inactive: 0 | inactive: 0 | inactive: 0 | inactive: 0 | inactive: 0 | inactive: 0 | inactive: 0 | 0 | 0
COc1ccc(OC)c(C2C(C#N)=C(N)Oc3n[nH]c(-c4ccc5ccccc5c4)c32)c1 (centres undefined) (10 µM) | inactive: 0 | inactive: 0 | inactive: 0 | inactive: 0 | inactive: 0 | inactive: 0 | inactive: 0 | inactive: 0 | 0 | 0
CCC(C)N1c2ccccc2C(=O)N(C)c2cnc(Nc3ccc(C(=O)N4CCC(N5CCN(C)CC5)CC4)cc3OC)nc21 (centres undefined) (2.5 µM) | inactive: 0 | inactive: 0 | inactive: 0 | inactive: 0 | inactive: 0 | inactive: 0 | inactive: 0 | inactive: 0 | 0 | 0
Cc1ccc(CNc2ncnc3ccc(-c4ccc(CO)o4)cc23)o1 (10 µM) | inactive: 0 | inactive: 0 | inactive: 0 | inactive: 0 | inactive: 0 | inactive: 0 | inactive: 0 | inactive: 0 | 0 | 0
O=C(NCCN1CCOCC1)c1cc2c(Oc3ccc(NC(=O)C4(C(=O)Nc5ccc(F)cc5)CC4)cc3)ccnc2[nH]1 [Tyrosine kinase inhibitor] (10 µM) | inactive: 0 | inactive: 0 | inactive: 0 | inactive: 0 | inactive: 0 | inactive: 0 | inactive: 0 | inactive: 0 | 0 | 0
CCCCCCCCCCCCC/C=C/[C@@H](O)[C@@H](N)CO [D-erythro-Sphingosine] (2.5 µM) | inactive: 0 | inactive: 0 | inactive: 0 | inactive: 0 | inactive: 0 | inactive: 0 | inactive: 0 | inactive: 0 | 0 | 0
COc1cc2c(cc1OC)CN(S(=O)(=O)c1ccc(OC)c(N3CCN(C(=O)c4ccc(F)cc4C(F)(F)F)CC3)c1)CC2 (10 µM) | inactive: 0 | inactive: 0 | inactive: 0 | inactive: 0 | inactive: 0 | inactive: 0 | inactive: 0 | inactive: 0 | 0 | 0
Nc1nc2ccc(Cl)cc2c2nc(-c3ccco3)nn12 (10 µM) | inactive: 0 | inactive: 0 | inactive: 0 | inactive: 0 | inactive: 0 | inactive: 0 | inactive: 0 | inactive: 0 | 0 | 0
C[C@@H]1CCN(C(=O)CC#N)C[C@@H]1N(C)c1ncnc2[nH]ccc12 [Tofacitinib] (10 µM) | inactive: 0 |  | inactive: 0 | inactive: 0 | inactive: 0 | inactive: 0 | inactive: 0 | inactive: 0 | 0 | 0

Limited to kinase-Nluc reporter destabilization hit call (STK38), for two of the compounds above:
Compound,kinase-Nluc reporter destabilization hit call (STK38)
CN(C)C(=O)Cn1cc(-c2ccc(-c3cncc4ccccc34)cc2)cn1 (10 µM),inactive: 0
Nc1nc2ccc(Cl)cc2c2nc(-c3ccco3)nn12 (10 µM),inactive: 0
